Results: publication PMC6300487
No constants are given. Whether binding was seen depends on the method and setting. In cells and extracts the contact can be indirect. Some results given as binding are weak or reduced against the parent protein; the word gives no strength. Sequences can lack the tags named with a protein. Blank lines part the entries; values can stand above or below the binder they belong to.

Experiments:
Myc-DDK-SCAMP3 = molecular target: T1, Myc-DDK-SCAMP3 (UniProt O14828); assay: co-IP; HEK293T co-transfected with Myc-DDK-tagged partner and GFP-WWOX, lysed after 36 h (1% Triton X-100, 150 mM NaCl, Hepes pH 7.4); IP with anti-Myc or anti-GFP (rabbit IgG control), Protein A/G agarose 16 h at 4 C; blot with anti-Myc or anti-WWOX
T1 sequence: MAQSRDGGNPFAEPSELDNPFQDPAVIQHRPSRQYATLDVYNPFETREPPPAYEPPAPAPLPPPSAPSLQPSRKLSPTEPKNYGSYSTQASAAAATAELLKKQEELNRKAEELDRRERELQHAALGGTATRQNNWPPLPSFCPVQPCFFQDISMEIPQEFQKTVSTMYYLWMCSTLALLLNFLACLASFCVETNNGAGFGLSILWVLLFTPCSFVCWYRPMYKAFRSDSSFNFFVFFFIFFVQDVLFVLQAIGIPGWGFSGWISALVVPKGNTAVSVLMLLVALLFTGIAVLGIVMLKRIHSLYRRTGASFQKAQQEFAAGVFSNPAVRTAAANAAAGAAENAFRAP

Myc-DDK-SEC23IP = molecular target: T2, Myc-DDK-SEC23IP (UniProt Q9Y6Y8); assay: as above
T2 sequence: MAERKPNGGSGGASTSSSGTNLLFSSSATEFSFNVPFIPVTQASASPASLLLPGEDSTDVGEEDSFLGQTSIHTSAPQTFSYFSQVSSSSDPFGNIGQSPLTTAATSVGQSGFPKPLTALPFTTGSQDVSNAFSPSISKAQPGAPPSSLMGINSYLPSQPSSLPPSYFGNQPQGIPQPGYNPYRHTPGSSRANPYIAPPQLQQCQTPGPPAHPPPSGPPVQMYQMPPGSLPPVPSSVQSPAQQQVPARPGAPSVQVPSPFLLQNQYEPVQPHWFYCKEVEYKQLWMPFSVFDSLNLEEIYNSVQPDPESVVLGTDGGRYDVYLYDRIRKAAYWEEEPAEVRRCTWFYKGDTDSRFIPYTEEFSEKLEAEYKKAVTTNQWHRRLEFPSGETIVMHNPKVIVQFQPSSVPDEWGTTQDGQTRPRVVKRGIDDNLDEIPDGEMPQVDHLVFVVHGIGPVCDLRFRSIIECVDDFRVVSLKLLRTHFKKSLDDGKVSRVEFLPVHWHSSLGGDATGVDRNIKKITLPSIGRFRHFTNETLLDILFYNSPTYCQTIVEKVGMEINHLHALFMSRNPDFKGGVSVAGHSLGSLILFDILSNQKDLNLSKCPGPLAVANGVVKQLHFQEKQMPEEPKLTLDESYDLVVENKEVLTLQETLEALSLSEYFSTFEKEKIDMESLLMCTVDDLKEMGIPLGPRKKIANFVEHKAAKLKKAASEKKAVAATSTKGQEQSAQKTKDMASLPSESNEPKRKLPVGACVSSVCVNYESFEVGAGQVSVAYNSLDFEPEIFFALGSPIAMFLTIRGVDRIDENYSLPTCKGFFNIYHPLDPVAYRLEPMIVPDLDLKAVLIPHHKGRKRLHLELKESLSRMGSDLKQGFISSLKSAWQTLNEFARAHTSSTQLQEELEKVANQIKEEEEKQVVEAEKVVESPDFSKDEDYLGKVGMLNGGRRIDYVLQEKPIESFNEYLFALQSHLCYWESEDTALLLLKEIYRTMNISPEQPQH

Myc-DDK-VOPP1 = molecular target: T3, Myc-DDK-VOPP1 (UniProt Q96AW1); assay: as above
T3 sequence: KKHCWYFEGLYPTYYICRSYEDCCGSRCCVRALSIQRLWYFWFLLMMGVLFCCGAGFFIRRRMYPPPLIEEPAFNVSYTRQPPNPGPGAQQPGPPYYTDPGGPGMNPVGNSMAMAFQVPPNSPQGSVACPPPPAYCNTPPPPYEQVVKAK

GFP-WWOX (human) = molecular target: T4, GFP-WWOX (human) (UniProt Q9NZC7); assay: as above
T4 sequence: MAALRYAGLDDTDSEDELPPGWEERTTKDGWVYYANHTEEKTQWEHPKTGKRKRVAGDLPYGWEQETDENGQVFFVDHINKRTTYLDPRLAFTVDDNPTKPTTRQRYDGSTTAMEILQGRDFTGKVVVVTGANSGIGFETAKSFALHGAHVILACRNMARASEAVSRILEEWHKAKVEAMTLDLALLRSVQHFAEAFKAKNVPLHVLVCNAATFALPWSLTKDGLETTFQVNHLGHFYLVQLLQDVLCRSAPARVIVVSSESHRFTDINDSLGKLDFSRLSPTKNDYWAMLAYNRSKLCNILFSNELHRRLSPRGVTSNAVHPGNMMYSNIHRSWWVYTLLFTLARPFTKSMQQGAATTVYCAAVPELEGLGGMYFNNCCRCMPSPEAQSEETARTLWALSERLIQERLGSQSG

[1] = molecular target: T5, GST-WWOX (full length wild-type WWOX) (human) (UniProt Q9NZC7); assay: pull-down; 10 ug purified GST-fusion protein with Glutathione Sepharose 4B added to 600 ug total lysate of HEK293T cells transfected with Myc-SEC23IP or Myc-SCAMP3 (50 mM Tris pH 7.5, 150 mM NaCl, 1% Triton X-100), overnight at 4 C; anti-Myc blot; only the target purified
T5 sequence: T4 sequence

B1: GFP-WWOX (protein, UniProt Q9NZC7 1-414)
chain: T4 sequence
- binding (Myc-DDK-SCAMP3): binds
- binding (Myc-DDK-SEC23IP): binds
- binding (Myc-DDK-VOPP1): binds

B2: Myc-DDK-SCAMP3 (protein, UniProt O14828 1-347)
chain: T1 sequence
- binding (GFP-WWOX (human)): binds
- binding [1]: binds

More lines, now with the values ahead:

- binding (GFP-WWOX (human)): binds
- binding [1]: binds
B3: Myc-DDK-SEC23IP (protein, UniProt Q9Y6Y8 1-1000)
chain: T2 sequence

- binding (GFP-WWOX (human)): binds
B4: Myc-DDK-VOPP1 (protein, UniProt Q96AW1 23-172)
chain: T3 sequence
